According to article PMC12282144 (Journal of Virology, 2025):
These are yes or no findings as the source states them, for the method shown. For some of these results: Binding seen in cells or lysates may run through a third protein. Some binding calls cover weakened binding; strength is not graded here. For some of these results: Sequences can lack the tags named with a protein.

Protein sequences, listed by entry. Tags and fused reporters are not part of them. Chains listed by the source or under a name are the forms on record and can include a tag or linker. Residues count along the entry.
Flag-tagged ERA G (plasmid-transfected) (P03524, residues 20-524): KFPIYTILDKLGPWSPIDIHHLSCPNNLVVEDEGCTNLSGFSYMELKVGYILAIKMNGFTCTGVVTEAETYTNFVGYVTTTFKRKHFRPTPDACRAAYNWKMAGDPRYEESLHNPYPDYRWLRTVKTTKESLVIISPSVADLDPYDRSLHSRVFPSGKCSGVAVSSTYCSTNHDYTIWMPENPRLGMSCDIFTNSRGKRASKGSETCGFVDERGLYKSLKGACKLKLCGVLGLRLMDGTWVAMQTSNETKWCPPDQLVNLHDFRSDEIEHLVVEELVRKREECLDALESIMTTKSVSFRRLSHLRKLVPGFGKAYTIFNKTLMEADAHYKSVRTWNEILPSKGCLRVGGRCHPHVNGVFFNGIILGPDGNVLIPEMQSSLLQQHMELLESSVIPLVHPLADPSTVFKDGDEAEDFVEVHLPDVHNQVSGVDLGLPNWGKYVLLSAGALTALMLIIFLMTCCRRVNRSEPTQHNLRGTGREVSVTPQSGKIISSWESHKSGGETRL
His-tagged RABV G ectodomain derived from the ERA strain (aa 41-450) (P03524, residues 41-450): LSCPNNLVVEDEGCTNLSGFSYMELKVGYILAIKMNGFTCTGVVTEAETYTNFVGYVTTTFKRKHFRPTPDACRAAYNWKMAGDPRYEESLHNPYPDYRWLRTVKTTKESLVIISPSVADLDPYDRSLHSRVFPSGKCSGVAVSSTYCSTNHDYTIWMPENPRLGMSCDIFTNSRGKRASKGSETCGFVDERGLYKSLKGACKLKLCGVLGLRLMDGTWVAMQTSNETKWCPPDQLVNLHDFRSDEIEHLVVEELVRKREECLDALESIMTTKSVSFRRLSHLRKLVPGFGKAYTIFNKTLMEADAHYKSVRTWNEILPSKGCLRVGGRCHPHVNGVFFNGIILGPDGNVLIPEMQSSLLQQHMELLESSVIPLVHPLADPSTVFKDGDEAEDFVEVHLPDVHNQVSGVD
UniProt P37173, residues 188-567: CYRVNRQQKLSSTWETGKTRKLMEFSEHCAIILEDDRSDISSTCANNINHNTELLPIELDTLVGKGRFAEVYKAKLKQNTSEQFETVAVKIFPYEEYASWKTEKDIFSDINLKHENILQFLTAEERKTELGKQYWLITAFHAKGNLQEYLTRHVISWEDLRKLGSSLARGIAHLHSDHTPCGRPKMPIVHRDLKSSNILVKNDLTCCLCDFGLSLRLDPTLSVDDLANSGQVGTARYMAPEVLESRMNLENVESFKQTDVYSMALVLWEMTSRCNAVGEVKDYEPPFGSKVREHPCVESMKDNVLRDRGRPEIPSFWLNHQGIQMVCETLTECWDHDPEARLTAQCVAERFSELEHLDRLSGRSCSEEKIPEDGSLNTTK

Assays:
[1] = target: T1, cytoplasmic domain of NRP2 (human) (UniProt O60462); assay: co-IP
T1 sequence: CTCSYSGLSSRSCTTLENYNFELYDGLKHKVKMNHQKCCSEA

[2] = target: T2, N-terminal GST-tagged soluble ectodomain of NRP2 (aa 17-865) (human) (UniProt O60462); assay: pull-down; both purified
T2 sequence: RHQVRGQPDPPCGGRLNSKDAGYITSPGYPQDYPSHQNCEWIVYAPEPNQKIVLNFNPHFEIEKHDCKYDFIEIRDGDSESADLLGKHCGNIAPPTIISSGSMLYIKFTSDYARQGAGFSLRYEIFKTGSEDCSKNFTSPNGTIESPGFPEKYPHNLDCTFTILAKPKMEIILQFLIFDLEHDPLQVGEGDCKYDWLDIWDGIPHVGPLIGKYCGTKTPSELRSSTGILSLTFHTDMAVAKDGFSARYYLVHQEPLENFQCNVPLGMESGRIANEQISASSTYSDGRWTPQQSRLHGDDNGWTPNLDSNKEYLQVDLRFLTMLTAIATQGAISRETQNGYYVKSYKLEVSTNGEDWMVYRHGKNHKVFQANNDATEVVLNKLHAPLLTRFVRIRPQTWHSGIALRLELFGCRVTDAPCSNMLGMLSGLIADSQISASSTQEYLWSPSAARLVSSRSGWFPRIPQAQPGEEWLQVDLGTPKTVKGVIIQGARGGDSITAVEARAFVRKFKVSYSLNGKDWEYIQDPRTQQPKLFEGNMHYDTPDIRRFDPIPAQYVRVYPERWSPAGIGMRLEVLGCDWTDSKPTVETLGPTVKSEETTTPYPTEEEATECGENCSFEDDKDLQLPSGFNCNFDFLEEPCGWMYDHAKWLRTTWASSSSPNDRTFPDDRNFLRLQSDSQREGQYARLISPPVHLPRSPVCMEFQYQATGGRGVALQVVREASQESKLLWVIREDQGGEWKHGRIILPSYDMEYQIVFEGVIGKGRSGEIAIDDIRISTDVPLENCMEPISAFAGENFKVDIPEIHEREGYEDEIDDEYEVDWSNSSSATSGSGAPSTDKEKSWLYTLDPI

[3] = target: ERA G-Flag derived from HEK293 cells infected with ERA(G/Flag) (rabies virus, strain ERA) (UniProt P03524); assay: co-IP
[4] = target: Flag-tagged ERA G (plasmid-transfected) (rabies virus, strain ERA) (UniProt P03524); assay: pull-down; only the binder purified

cytoplasmic domain of the human TGFBR2 (from UniProt P37173 188-567) (domain or fragment)
binding [1]: no binding

His-tagged RABV G ectodomain derived from the ERA strain (aa 41-450) (from UniProt P03524 41-450) (domain or fragment)
binding [2]: binds

B1: endogenous NRP2 (receptor, UniProt O60462 21-931)
chain: RGQPDPPCGGRLNSKDAGYITSPGYPQDYPSHQNCEWIVYAPEPNQKIVLNFNPHFEIEKHDCKYDFIEIRDGDSESADLLGKHCGNIAPPTIISSGSMLYIKFTSDYARQGAGFSLRYEIFKTGSEDCSKNFTSPNGTIESPGFPEKYPHNLDCTFTILAKPKMEIILQFLIFDLEHDPLQVGEGDCKYDWLDIWDGIPHVGPLIGKYCGTKTPSELRSSTGILSLTFHTDMAVAKDGFSARYYLVHQEPLENFQCNVPLGMESGRIANEQISASSTYSDGRWTPQQSRLHGDDNGWTPNLDSNKEYLQVDLRFLTMLTAIATQGAISRETQNGYYVKSYKLEVSTNGEDWMVYRHGKNHKVFQANNDATEVVLNKLHAPLLTRFVRIRPQTWHSGIALRLELFGCRVTDAPCSNMLGMLSGLIADSQISASSTQEYLWSPSAARLVSSRSGWFPRIPQAQPGEEWLQVDLGTPKTVKGVIIQGARGGDSITAVEARAFVRKFKVSYSLNGKDWEYIQDPRTQQPKLFEGNMHYDTPDIRRFDPIPAQYVRVYPERWSPAGIGMRLEVLGCDWTDSKPTVETLGPTVKSEETTTPYPTEEEATECGENCSFEDDKDLQLPSGFNCNFDFLEEPCGWMYDHAKWLRTTWASSSSPNDRTFPDDRNFLRLQSDSQREGQYARLISPPVHLPRSPVCMEFQYQATGGRGVALQVVREASQESKLLWVIREDQGGEWKHGRIILPSYDMEYQIVFEGVIGKGRSGEIAIDDIRISTDVPLENCMEPISAFAGENFKVDIPEIHEREGYEDEIDDEYEVDWSNSSSATSGSGAPSTDKEKSWLYTLDPILITIIAMSSLGVLLGATCAGLLLYCTCSYSGLSSRSCTTLENYNFELYDGLKHKVKMNHQKCCSEA
binding [3]: binds

B2: recombinant Fc-tagged NRP2 ectodomain (Fc fusion, UniProt O60462 21-864)
chain: RGQPDPPCGGRLNSKDAGYITSPGYPQDYPSHQNCEWIVYAPEPNQKIVLNFNPHFEIEKHDCKYDFIEIRDGDSESADLLGKHCGNIAPPTIISSGSMLYIKFTSDYARQGAGFSLRYEIFKTGSEDCSKNFTSPNGTIESPGFPEKYPHNLDCTFTILAKPKMEIILQFLIFDLEHDPLQVGEGDCKYDWLDIWDGIPHVGPLIGKYCGTKTPSELRSSTGILSLTFHTDMAVAKDGFSARYYLVHQEPLENFQCNVPLGMESGRIANEQISASSTYSDGRWTPQQSRLHGDDNGWTPNLDSNKEYLQVDLRFLTMLTAIATQGAISRETQNGYYVKSYKLEVSTNGEDWMVYRHGKNHKVFQANNDATEVVLNKLHAPLLTRFVRIRPQTWHSGIALRLELFGCRVTDAPCSNMLGMLSGLIADSQISASSTQEYLWSPSAARLVSSRSGWFPRIPQAQPGEEWLQVDLGTPKTVKGVIIQGARGGDSITAVEARAFVRKFKVSYSLNGKDWEYIQDPRTQQPKLFEGNMHYDTPDIRRFDPIPAQYVRVYPERWSPAGIGMRLEVLGCDWTDSKPTVETLGPTVKSEETTTPYPTEEEATECGENCSFEDDKDLQLPSGFNCNFDFLEEPCGWMYDHAKWLRTTWASSSSPNDRTFPDDRNFLRLQSDSQREGQYARLISPPVHLPRSPVCMEFQYQATGGRGVALQVVREASQESKLLWVIREDQGGEWKHGRIILPSYDMEYQIVFEGVIGKGRSGEIAIDDIRISTDVPLENCMEPISAFAGENFKVDIPEIHEREGYEDEIDDEYEVDWSNSSSATSGSGAPSTDKEKSWLYTLDP
binding [4]: binds
